Test results reported in patent US20230167479A1, “RESEARCH INTO ANTIMICROBIAL RESISTANCE BY THE FIELD FLOW FRACTIONATION TECHNIQUE” (UNIVERSITÉ DE LIMOGES, priority 2020, published 2023).
At least one compound was matched to its structure with a doubt left.

System: E. coli strain ATCC 25922
Experiment: SdFFF elution-profile sensitivity test, protocol of Example 1 / FIG. 1
Format: cell-based
Settings: PΔR compared with 10% threshold
Experimental: The results of the antimicrobial resistance analysis are expected starting 40 hours after the sample was cultured on agar.
The field-flow fractionation device is set according to patent EP1679124. The device comprises an injection system where the sample is taken, the tubing bringing the sample from the injector to the separation channel via a first rotary joint, the separation channel contained in a centrifugation bowl, the rotation of which is ensured by an electric motor itself controlled manually or via a suitable computer device, thus allowing control of the intensity of the multigravitational field, the tubing bringing the separated species from the channel to the detector via the second rotary joint, and finally the detector.
Bacterial colonies were incubated in a Mueller-Hinton (MH) culture medium with an inoculum of 0.5 McFarland in the absence or in the presence of antibiotic, for 2 hours at 37° C. and under stirring. The liquid medium MH is the reference medium used for the reference method for determining MIC values, called the dilution method in a liquid medium.
After incubation for 2 h, the culture medium was centrifuged and then taken up in a volume of 0.5 ml of PBS.
Example 1: Results of resistance tests of the E. coli strain ATCC 25922 to various molecules, using SdFFF according to the present invention. […]

CN(C)[C@@H]1C(O)=C(C(N)=O)C(=O)[C@@]2(O)C(O)=C3C(=O)c4c(O)ccc(Cl)c4[C@@](C)(O)[C@H]3C[C@@H]12 [chlortetracycline, Chlortetracycline]
sensitivity/resistance of the strain to the antimicrobial (0.03 µg/ml chlortetracycline): sensitive

NC[C@H]1O[C@H](O[C@H]2[C@H](O)[C@@H](O[C@H]3O[C@H](CO)[C@@H](O)[C@H](N)[C@H]3O)[C@H](N)C[C@@H]2N)[C@H](O)[C@@H](O)[C@@H]1O [kanamycin]
sensitivity/resistance of the strain to the antimicrobial (3 µg/ml of kanamycin): sensitive
